# Literature values as cited in patent US20080260771A1, “PROSTATE DISORDER(S) PHYTO-NUTRACEUTICAL SYNERGISTIC COMPOSITION” (priority 2006, published 2008).
# At least one compound was matched to its structure with a doubt left.
# Tested on: human prostate cancer (PCA) PC3 cells
# Details: dose/time-dependent
smiles,measurement,value
COc1cc(C2Oc3cc([C@H]4Oc5cc(O)cc(O)c5C(=O)[C@@H]4O)ccc3OC2CO)ccc1O (stereo partly shown) [silibinin],cell proliferation,inhibited cell proliferation
